Reference: US10501497B2 (AXOLTIS PHARMA, priority 2015, dated 2019)
Some peptides are written in HELM: one residue between dots, names in brackets for other building blocks, links after the first $.

Assay: general procedure: Fmoc solid-phase peptide synthesis; MBHA resin with Fmoc-Gly-MPPA-OH linker
Conditions: whole synthesis

For “PEPTIDE1{W.S.G.W.S.S.C.S.R.S.C.G}$PEPTIDE1,PEPTIDE1,7:R3-11:R3$$$V2.0”, the “crude HPLC purity” value was 44.51% and the “final purity (method not given)” value (HPLC) was 99%.
